These are yes or no findings as the source states them, for the method shown. Binding seen in cells or lysates may run through a third protein. Tags and fused reporters may be left off the sequences shown.
Target: T1, Plk4-FLAG full-length wild-type (UniProt O00444)
T1 sequence: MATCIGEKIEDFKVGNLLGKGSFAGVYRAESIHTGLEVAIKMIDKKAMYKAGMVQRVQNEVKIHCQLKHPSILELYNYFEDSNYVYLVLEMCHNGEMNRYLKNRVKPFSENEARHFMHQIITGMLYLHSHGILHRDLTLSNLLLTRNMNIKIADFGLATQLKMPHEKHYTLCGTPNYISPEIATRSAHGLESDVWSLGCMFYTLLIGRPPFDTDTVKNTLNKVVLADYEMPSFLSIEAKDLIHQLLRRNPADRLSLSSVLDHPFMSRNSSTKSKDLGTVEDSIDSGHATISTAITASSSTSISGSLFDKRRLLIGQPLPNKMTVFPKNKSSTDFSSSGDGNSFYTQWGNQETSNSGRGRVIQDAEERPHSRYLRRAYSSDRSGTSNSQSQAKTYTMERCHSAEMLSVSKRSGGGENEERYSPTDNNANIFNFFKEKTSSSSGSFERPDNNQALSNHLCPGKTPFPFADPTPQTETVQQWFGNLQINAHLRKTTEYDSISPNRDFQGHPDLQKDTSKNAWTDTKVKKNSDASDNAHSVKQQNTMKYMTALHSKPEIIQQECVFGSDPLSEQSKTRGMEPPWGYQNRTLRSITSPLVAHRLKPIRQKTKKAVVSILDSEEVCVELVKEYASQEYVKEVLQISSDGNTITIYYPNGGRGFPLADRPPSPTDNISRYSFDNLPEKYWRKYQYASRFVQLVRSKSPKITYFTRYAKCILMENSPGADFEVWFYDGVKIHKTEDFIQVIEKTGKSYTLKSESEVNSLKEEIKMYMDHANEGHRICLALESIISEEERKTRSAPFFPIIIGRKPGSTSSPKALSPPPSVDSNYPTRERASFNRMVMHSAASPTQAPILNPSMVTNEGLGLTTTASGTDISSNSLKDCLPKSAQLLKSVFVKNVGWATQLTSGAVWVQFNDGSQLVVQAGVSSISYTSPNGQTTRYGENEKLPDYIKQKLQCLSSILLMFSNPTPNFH
Experiment: co-IP; FLAG antibody-conjugated M2 agarose, 2 h at 4 °C, whole-cell lysates of HEK293T cells expressing Plk4-FLAG proteins (alone or with HA-STIL constructs); lysis buffer 20 mM Tris/HCl pH 7.5, 50 mM NaCl, 1% Triton X-100, 5 mM EGTA, 1 mM DTT, 2 mM MgCl2; western blot

- binding: no binding
B1: endogenous HsSAS-6 (protein, UniProt Q6UVJ0 1-657)
chain: MSQVLFHQLVPLQVKCKDCEERRVSIRMSIELQSVSNPVHRKDLVIRLTDDTDPFFLYNLVISEEDFQSLKFQQGLLVDFLAFPQKFIDLLQQCTQEHAKEIPRFLLQLVSPAAILDNSPAFLNVVETNPFKHLTHLSLKLLPGNDVEIKKFLAGCLKCSKEEKLSLMQSLDDATKQLDFTRKTLAEKKQELDKLRNEWASHTAALTNKHSQELTNEKEKALQAQVQYQQQHEQQKKDLEILHQQNIHQLQNRLSELEAANKDLTERKYKGDSTIRELKAKLSGVEEELQRTKQEVLSLRRENSTLDVECHEKEKHVNQLQTKVAVLEQEIKDKDQLVLRTKEAFDTIQEQKVVLEENGEKNQVQLGKLEATIKSLSAELLKANEIIKKLQGDLKTLMGKLKLKNTVTIQQEKLLAEKEEKLQKEQKELQDVGQSLRIKEQEVCKLQEQLEATVKKLEESKQLLKNNEKLITWLNKELNENQLVRKQDVLGPSTTPPAHSSSNTIRSGISPNLNVVDGRLTYPTCGIGYPVSSAFAFQNTFPHSISAKNTSHPGSGTKVQFNLQFTKPNASLGDVQSGATISMPCSTDKENGENVGLESKYLKKREDSIPLRGLSQNLFSNSDHQRDGTLGALHTSSKPTALPSASSAYFPGQLPNS
